Test results as given in patent US20260276636A1, “METHOD FOR SPECIFIC AND RAPID QUANTIFICATION OF THE TOTAL VIABLE BACTERIAL COUNT IN RAW MILK” (National Institute of Metrology, priority 2023, published 2026).

Test system: Bacillus subtilis
Test: Detection of bacterial viability (SYTO9/PI, flow cytometry)
Conditions: 2 h
Method: • 1. Culture of bacterial strains. After the four bacterial strains were activated on a nutrient agar plate, a single colony was picked, inoculated to TSB medium (10 g/L peptone, 3 g/L beef extract powder, and 5 g/L sodium chloride), incubated at 37° C. for 6 h to the mid-logarithmic stage, and then centrifuged at 8000 rpm for 5 min to collect the bacterial cells. The collected bacterial cells were suspended in fresh TSB medium at a bacterial suspension concentration of approximately 10^7 cells/mL. • 2. Antibiotics. […] Bacterial growth was analyzed using a microplate reader, and the smallest concentration of antibiotics that could inhibit the growth of bacteria was defined as the minimum inhibitory concentration. • 4. […] After centrifugation at 8000 rpm, the bacterial cells were collected and resuspended in the PBS buffer, and the changes in the number of bacteria in the sample were analyzed using the forward scatter signals on the flow cytometer. • 5. […] The above labeling system was left at room temperature for 30 min in the dark, washed and centrifuged with PBS twice, and the percentages of viable and dead bacteria were analyzed using a flow cytometer. […]

O=C(O)c1cn(C2CC2)c2cc(N3CCNCC3)c(F)cc2c1=O [Ciprofloxacin, ciprofloxacin]
bacterial viability after antibiotic treatment: 79.7%
